Experimental data: article PMC7841161, “APE1 distinguishes DNA substrates in exonucleolytic cleavage by induced space-filling”

Protein sequences, listed by entry. Tags and fused reporters are not part of them.
UniProt P28352, whole entry: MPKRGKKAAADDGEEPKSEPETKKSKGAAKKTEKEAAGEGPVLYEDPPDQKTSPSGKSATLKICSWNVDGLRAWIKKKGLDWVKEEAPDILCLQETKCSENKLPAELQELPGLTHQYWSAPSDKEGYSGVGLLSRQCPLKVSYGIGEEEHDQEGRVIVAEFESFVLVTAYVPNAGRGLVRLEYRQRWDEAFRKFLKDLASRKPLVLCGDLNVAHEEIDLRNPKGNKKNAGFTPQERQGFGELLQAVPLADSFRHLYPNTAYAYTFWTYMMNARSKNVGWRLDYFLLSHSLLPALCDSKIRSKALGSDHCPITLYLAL

Target: mAPE1 full-length (mouse) (UniProt P28352)
Assay: EMSA
Conditions: 50 mM EDTA, EMSA: 50 mM EDTA, 20 mM Tris-HCl pH 7.0, 120 mM NaCl, on ice 10 min + 10 min, FAM-labeled substrates, TBE native gel, recombinant protein, residues 1-317, label: FAM

ACTGGACAAATACTCCGAGG / GAGCACGCTTCACTAATCACACTCGGAGTATTTGTCCAGT [recessed dsDNA 20 nt 5' overhang, 1 nt mismatch]
binding result: binds

ACTGGACAAATACTCCGAGG / TGATTAGTGAAGCGTGCTC / GAGCACGCTTCACTAATCACACTCGGAGTATTTGTCCAGT [1-nt gapped dsDNA 40 mer, 1 nt mismatch]
binding result (low-MW complex absent, 5'-phosphate at gap margin (strand 2)): binds more weakly

ACTGGACAAATACTCCGAGG [ssDNA 20 nt]
binding result (single-stranded DNA): binds more weakly

ACTGGACAAATACTCCGAGG / GAGCACGCTTCACTAATCACAATCGGAGTATTTGTCCAGT [recessed dsDNA 20 nt 5' overhang, 2 nt mismatch]
binding result (reduced vs other recessed dsDNAs): binds more weakly

ACTGGACAAATACTCCGAGG / GTGATTAGTGAAGCGTGCTC / GAGCACGCTTCACTAATCACCCTCGGAGTATTTGTCCAGT [nicked dsDNA 40 mer 5'-phosphate]
binding result (weaker than 5'-OH nicked, no low-MW complex, 5'-phosphate at nick (strand 2)): binds more weakly

A weaker result is weaker than the reference pair of the same experiment. For at least one entry, the source does not settle the construct or the ends of the probe. At least one verdict was read from the data and is not stated in words by the source.
